## Library screening results

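Viability assay of Plasmodium falciparum sporozoites; the read-out is not stated. The concentration is filed as 10 mM, unlikely as a test dose, so the dose is not known. Higher reads as lower viability (inferred: compounds with an IC50 in retests scored well above the rest). Strong results were mostly tested again. About 34,000 compounds were tested under these conditions; 0.84% (about 280) showed 50% or more at least once.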

Values are the deposited “Percent Effect”, in %. The controls that fix the scale are not given in the record; negative values are as filed. The compounds are a random part of those screened. Two or more numbers in one place are separate tests of the same structure; such repeats can differ widely.

compound	percent effect
CNC(=O)c1ccc2c(c1)C1(CCN(CC(C)C)CC1)C(=O)N2.O=C(O)C(F)(F)F	-9.227
COc1ccc(OC)c(CNc2c(O)c(=O)c2=O)c1	-1.907
Cc1noc(C2CCCN(C(=O)c3ccc(Br)o3)C2)n1 (centres undefined)	-5.549
Cc1noc(CN2CCN(C(=O)N(C)C)CC2)n1	9.234
CCOC(=O)N1CCC(NC(=O)Nc2cccnc2OCC)CC1	0.2026
CC(C)N1CCC2(CC1)CC(c1cccnc1)C(=O)N2 (centres undefined)	1.302
Cc1cc(CNc2cccc(Cl)c2C)no1	6.154
O=C(Cc1cccc(F)c1)NCCCNC(=O)c1cccc(O)c1	4.75
Cc1nc2cc(O)nn2c(C)c1CCC(=O)NCCc1ccccc1	-14.31
COCc1n[nH]c2c1CN(Cc1ccccn1)C2.O=C(O)C(F)(F)F	5.707
O=C(O)C(F)(F)F.O=C(O)C(F)(F)F.[H][C@]12CCN(C(=O)C3CC3)CC[C@@]1([H])S(=O)(=O)CCN2Cc1cccnc1	0.08772
O=C(O)C(F)(F)F.O=C(O)C(F)(F)F.[H][C@@]12COC[C@]1([H])[C@H](OCc1ccccn1)CN2Cc1ccc(C)o1	-6.402
[H][C@@]12CCN(Cc3cnn(C)c3)[C@]1([H])CC[C@@H](C(=O)NCCOC)O2	-9.199
O=C(COCC1CC1)N1CCCC(n2ccnc2)C1 (centres undefined)	-5.728
CC(C)c1cc(NC(=O)c2ccc(NC3CC3)nc2)[nH]n1	15.54
CC(C(=O)NCCN1CCCCC1)n1cncn1 (centres undefined)	0.8079
Cc1ncsc1CN1CCOC(C)(C(=O)N2CCOCC2)C1 (centres undefined)	-4.348
CC(C)c1nccn1-c1cncc(C2CCCN(C3CCCC3)C2)n1 (centres undefined)	-6.527
CS(=O)(=O)NCC1CCCN(C(=O)COCc2ccccc2)C1 (centres undefined)	6.441
O=C(O)C(F)(F)F.O=C(O)C(F)(F)F.O=C(c1n[nH]c2c1CN(C1CCOCC1)CC2)N1CCCC1	-198
Cc1noc(CCCC(=O)N2CCCC2c2ccsc2)n1 (centres undefined)	9.826
CCN1CC(NC(=O)Nc2nc(C)n(C(C)C)n2)CC1=O (centres undefined)	-0.3286
O=S(=O)(N1CCCCC1)N1CCC(Oc2cnccn2)CC1	2.421
[H][C@@]12CCN(C(=O)c3ccccc3)C[C@@]1([H])O[C@@H](c1nnc(C3CC3)o1)C2	0.5673
[H][C@]12CCN(c3cc(OC)ncn3)[C@@]1([H])C[C@H](C(=O)NCCN(C)C)O2	11.13
Cc1cnc(CC2COCCN(Cc3nccn3C)C2)cn1 (centres undefined)	-4.686
Nc1cc(-c2c[nH]nc2C2CCCN2S(=O)(=O)c2ccccc2)ccn1 (centres undefined)	8.093
CCc1nnc(Nc2cccc(C3CCN(C(=O)CO)CC3)n2)s1	7.615
O=C(c1cc(-n2cccn2)ccn1)N1CCOc2ncccc21	2.249
CCN1CCN(C2CCN(Cc3ncc(C(C)(C)C)o3)CC2)C1=O	7.399
CS(=O)(=O)N1CCC2(CC1)CC(CC(=O)NC1CC1)c1ccccc12 (centres undefined)	-6.376
O=C(c1cccnc1)C1CCCN(c2nnc(C3CC3)o2)C1 (centres undefined)	7.119
CCSc1cncc(N2CCC(C(=O)NC(C)C(C)C)CC2)n1 (centres undefined)	-9.778
N[C@@H]1c2ccccc2C2(CCN(c3cnc4ccccc4n3)CC2)[C@H]1O	19.71 & 18.16
Cn1ccc(NC(=O)Cc2ccccc2F)n1	-21.91 & -26.09
O=C(C1CCOC1)N1CCC2(CCN(Cc3nccs3)C2)CC1 (centres undefined)	-14.39
Cc1noc(C)c1C(=O)NCC(C)N(C)C (centres undefined)	0.7519
O=C(NCCCOc1cccnc1)c1cn(Cc2ccccc2F)nn1	-14.94
COc1ccc(CNCc2c(C(C)C)nn(C)c2N(C)C)cn1	8.11
CCS(=O)(=O)N1CCCC(n2nnn(-c3ccccc3)c2=O)C1 (centres undefined)	-5.309
CCn1cc2c(n1)C(COC)CN(C(=O)CCOc1ccccc1)C2 (centres undefined)	-14.36
CO[C@H]1CCN(Cc2nccs2)C[C@@H]1Cc1ccccc1	13.64

The last 4 entries again:

compound,percent effect
COc1ccc(CNCc2c(C(C)C)nn(C)c2N(C)C)cn1,8.11
CCS(=O)(=O)N1CCCC(n2nnn(-c3ccccc3)c2=O)C1 (centres undefined),-5.309
CCn1cc2c(n1)C(COC)CN(C(=O)CCOc1ccccc1)C2 (centres undefined),-14.36
CO[C@H]1CCN(Cc2nccs2)C[C@@H]1Cc1ccccc1,13.64

Source: ChEMBL document CHEMBL3988442, “University of Dundee, Small-Polar-MMV Screening Library” (2021).